First the molecules themselves.
B1: KORRIGAN1 (KOR1), complete protein (AA 1 to 621), MbYTH fusion (protein, UniProt Q38890 1-621)
chain: MYGRDPWGGPLEINTADSATDDDRSRNLNDLDRAALSRPLDETQQSWLLGPTEQKKKKYVDLGCIIVSRKIFVWTVGTLVAAALLAGFITLIVKTVPRHHPKTPPPDNYTIALHKALKFFNAQKSGKLPKHNNVSWRGNSGLQDGKGETGSFYKDLVGGYYDAGDAIKFNFPMAYAMTMLSWSVIEYSAKYEAAGELTHVKELIKWGTDYFLKTFNSTADSIDDLVSQVGSGNTDDGNTDPNDHYCWMRPEDMDYKRPVTTCNGGCSDLAAEMAAALASASIVFKDNKEYSKKLVHGAKVVYQFGRTRRGRYSAGTAESSKFYNSSMYWDEFIWGGAWMYYATGNVTYLNLITQPTMAKHAGAFWGGPYYGVFSWDNKLAGAQLLLSRLRLFLSPGYPYEEILRTFHNQTSIVMCSYLPIFNKFNRTNGGLIELNHGAPQPLQYSVNAAFLATLYSDYLDAADTPGWYCGPNFYSTSVLRDFARSQIDYILGKNPRKMSYVVGFGTKYPRHVHHRGASIPKNKVKYNCKGGWKWRDSKKPNPNTIEGAMVAGPDKRDGYRDVRMNYNYTEPTLAGNAGLVAALVALSGEEEATGKIDKNTIFSAVPPLFPTPPPPPAPWKP
B2: KOR1C, transmembrane domain plus the C-terminal part of KOR1 (AA 70 to 621), MbYTH fusion (domain or fragment, UniProt Q38890 70-621)
chain: KIFVWTVGTLVAAALLAGFITLIVKTVPRHHPKTPPPDNYTIALHKALKFFNAQKSGKLPKHNNVSWRGNSGLQDGKGETGSFYKDLVGGYYDAGDAIKFNFPMAYAMTMLSWSVIEYSAKYEAAGELTHVKELIKWGTDYFLKTFNSTADSIDDLVSQVGSGNTDDGNTDPNDHYCWMRPEDMDYKRPVTTCNGGCSDLAAEMAAALASASIVFKDNKEYSKKLVHGAKVVYQFGRTRRGRYSAGTAESSKFYNSSMYWDEFIWGGAWMYYATGNVTYLNLITQPTMAKHAGAFWGGPYYGVFSWDNKLAGAQLLLSRLRLFLSPGYPYEEILRTFHNQTSIVMCSYLPIFNKFNRTNGGLIELNHGAPQPLQYSVNAAFLATLYSDYLDAADTPGWYCGPNFYSTSVLRDFARSQIDYILGKNPRKMSYVVGFGTKYPRHVHHRGASIPKNKVKYNCKGGWKWRDSKKPNPNTIEGAMVAGPDKRDGYRDVRMNYNYTEPTLAGNAGLVAALVALSGEEEATGKIDKNTIFSAVPPLFPTPPPPPAPWKP
B3: KOR1NOTMD, KOR1 without the transmembrane domain (AA 1 to 69+95 to 621), MbYTH prey (domain or fragment, UniProt Q38890)
chain: MYGRDPWGGPLEINTADSATDDDRSRNLNDLDRAALSRPLDETQQSWLLGPTEQKKKKYVDLGCIIVSRTVPRHHPKTPPPDNYTIALHKALKFFNAQKSGKLPKHNNVSWRGNSGLQDGKGETGSFYKDLVGGYYDAGDAIKFNFPMAYAMTMLSWSVIEYSAKYEAAGELTHVKELIKWGTDYFLKTFNSTADSIDDLVSQVGSGNTDDGNTDPNDHYCWMRPEDMDYKRPVTTCNGGCSDLAAEMAAALASASIVFKDNKEYSKKLVHGAKVVYQFGRTRRGRYSAGTAESSKFYNSSMYWDEFIWGGAWMYYATGNVTYLNLITQPTMAKHAGAFWGGPYYGVFSWDNKLAGAQLLLSRLRLFLSPGYPYEEILRTFHNQTSIVMCSYLPIFNKFNRTNGGLIELNHGAPQPLQYSVNAAFLATLYSDYLDAADTPGWYCGPNFYSTSVLRDFARSQIDYILGKNPRKMSYVVGFGTKYPRHVHHRGASIPKNKVKYNCKGGWKWRDSKKPNPNTIEGAMVAGPDKRDGYRDVRMNYNYTEPTLAGNAGLVAALVALSGEEEATGKIDKNTIFSAVPPLFPTPPPPPAPWKP
B4: KOR1N, N-terminal part of KOR1 with the transmembrane domain (AA 1 to 94), MbYTH fusion (domain or fragment, UniProt Q38890 1-94)
chain: MYGRDPWGGPLEINTADSATDDDRSRNLNDLDRAALSRPLDETQQSWLLGPTEQKKKKYVDLGCIIVSRKIFVWTVGTLVAAALLAGFITLIVK

These are yes or no findings as the source states them, for the method shown. Some binding calls cover weakened binding; strength is not graded here. Tags and fused reporters may be left off the sequences shown.

The target in the first assay is T1, CESA4 (cellulose synthase, secondary cell wall), MbYTH fusion (Arabidopsis thaliana) (UniProt Q84JA6).
T1 sequence: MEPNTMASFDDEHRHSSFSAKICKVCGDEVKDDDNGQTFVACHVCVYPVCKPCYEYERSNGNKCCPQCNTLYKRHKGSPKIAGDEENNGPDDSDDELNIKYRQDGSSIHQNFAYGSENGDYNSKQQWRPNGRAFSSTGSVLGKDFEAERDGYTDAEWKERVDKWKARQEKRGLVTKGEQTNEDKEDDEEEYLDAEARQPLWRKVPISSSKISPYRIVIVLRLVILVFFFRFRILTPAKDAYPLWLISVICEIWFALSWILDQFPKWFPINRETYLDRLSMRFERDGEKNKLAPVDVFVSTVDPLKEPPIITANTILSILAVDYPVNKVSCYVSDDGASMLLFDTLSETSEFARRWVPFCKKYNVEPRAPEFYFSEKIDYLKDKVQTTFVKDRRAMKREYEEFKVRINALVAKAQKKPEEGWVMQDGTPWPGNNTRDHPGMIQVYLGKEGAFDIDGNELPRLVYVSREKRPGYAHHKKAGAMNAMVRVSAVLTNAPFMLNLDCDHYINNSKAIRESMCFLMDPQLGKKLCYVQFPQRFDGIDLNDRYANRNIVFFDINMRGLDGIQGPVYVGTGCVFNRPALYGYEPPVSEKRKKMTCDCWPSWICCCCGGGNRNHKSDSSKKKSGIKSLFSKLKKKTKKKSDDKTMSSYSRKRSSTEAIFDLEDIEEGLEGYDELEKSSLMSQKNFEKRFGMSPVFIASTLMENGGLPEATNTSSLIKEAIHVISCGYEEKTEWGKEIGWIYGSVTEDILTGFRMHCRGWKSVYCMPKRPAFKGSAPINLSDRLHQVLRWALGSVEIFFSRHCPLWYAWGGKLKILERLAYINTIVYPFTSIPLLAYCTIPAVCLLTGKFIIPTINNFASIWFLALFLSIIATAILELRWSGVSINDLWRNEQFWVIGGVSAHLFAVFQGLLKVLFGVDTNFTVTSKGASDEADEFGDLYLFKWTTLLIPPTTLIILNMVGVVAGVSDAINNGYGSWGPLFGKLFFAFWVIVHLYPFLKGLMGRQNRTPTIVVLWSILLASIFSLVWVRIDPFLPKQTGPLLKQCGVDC
In words: two-hybrid; split-ubiquitin membrane-based yeast two-hybrid (MbYTH) in S. cerevisiae NMY51; bait fused to Cub-TF, prey to NubG; 100 colonies of each combination spotted on selective medium with 3-AT, 30°C, three days, grown spots counted; called 'in vitro' by the paper.
For B1, the binding entry is listed as “binds”.
In the case of B2, the binding result is given as “binds”.
On to B3, for which the binding entry is given as “no binding”.
Take KIFVWTVGTLVAAALLAGFITLIVK (domain or fragment, UniProt Q38890 70-94) [KOR1TMD, only the transmembrane domain of KOR1 (AA 70 to 94), MbYTH fusion]: the binding entry is “binds”.
Take B4: the binding entry is “binds”.

The target in the next assay is T2, CESA6 (cellulose synthase, primary cell wall), MbYTH fusion (Arabidopsis thaliana) (UniProt Q94JQ6).
T2 sequence: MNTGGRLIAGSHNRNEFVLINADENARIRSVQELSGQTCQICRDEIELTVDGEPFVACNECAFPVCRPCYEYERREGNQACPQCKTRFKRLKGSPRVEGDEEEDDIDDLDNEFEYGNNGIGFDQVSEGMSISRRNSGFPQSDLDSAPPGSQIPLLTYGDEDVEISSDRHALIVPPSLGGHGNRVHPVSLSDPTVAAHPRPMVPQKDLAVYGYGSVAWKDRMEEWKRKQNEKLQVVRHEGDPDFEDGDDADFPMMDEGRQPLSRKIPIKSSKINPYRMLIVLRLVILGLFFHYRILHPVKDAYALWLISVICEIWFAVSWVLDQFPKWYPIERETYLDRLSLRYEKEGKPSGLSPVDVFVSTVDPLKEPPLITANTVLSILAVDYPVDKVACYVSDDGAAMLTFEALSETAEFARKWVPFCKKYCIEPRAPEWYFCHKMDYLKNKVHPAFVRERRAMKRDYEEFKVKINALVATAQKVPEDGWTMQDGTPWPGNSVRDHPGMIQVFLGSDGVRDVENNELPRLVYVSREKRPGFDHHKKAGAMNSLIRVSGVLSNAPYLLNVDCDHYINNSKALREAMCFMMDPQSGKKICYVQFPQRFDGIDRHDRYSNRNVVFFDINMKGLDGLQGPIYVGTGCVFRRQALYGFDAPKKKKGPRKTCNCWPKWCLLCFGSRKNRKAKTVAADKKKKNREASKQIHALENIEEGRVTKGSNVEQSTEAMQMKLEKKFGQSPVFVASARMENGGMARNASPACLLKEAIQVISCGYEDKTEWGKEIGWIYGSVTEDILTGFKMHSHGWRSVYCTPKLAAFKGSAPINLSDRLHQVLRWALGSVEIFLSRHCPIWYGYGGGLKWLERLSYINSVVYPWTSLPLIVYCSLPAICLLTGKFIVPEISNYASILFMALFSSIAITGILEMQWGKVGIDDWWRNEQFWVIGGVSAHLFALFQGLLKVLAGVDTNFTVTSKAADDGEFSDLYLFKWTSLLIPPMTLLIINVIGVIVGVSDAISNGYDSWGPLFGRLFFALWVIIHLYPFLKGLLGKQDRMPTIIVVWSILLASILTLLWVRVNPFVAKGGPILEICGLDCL
The assay is described as above.
With B2, the binding result is recorded as “binds”.
The same measure, in the same setting: next, B3: “no binding”; KIFVWTVGTLVAAALLAGFITLIVK (domain or fragment, UniProt Q38890 70-94) [KOR1TMD, only the transmembrane domain of KOR1 (AA 70 to 94), MbYTH fusion]: “binds”.
Turning to B4, the binding result was “binds”.

In the next assay the target is T3, KOR1N, N-terminal part of KOR1 with the transmembrane domain (AA 1 to 94), MbYTH fusion (Arabidopsis thaliana) (UniProt Q38890).
T3 sequence: B4 chain
The description is as above.
B3: the binding entry is on record as “no binding”.
In the case of KIFVWTVGTLVAAALLAGFITLIVK (domain or fragment, UniProt Q38890 70-94) [KOR1TMD, only the transmembrane domain of KOR1 (AA 70 to 94), MbYTH fusion], the binding entry is “binds”.
As for B4, the binding entry is recorded as “binds”.

The values above are taken from publication PMC4226561.
